These are yes or no findings as the source states them, for the method shown. A result given as binding can be weak or reduced; the word gives no strength.

The target of the experiment is HLA-B*2705 (human). Description: REVEAL in vitro MHC-peptide binding assay on HLA-B2705.

B1: Peptide I.D. 1 … (peptide)
peptide: KRFNALQYL
Regarding B1, the binding result was “binds”.

(Values after patent publication US20160280750A1.)
